No constants are given. Whether binding was seen depends on the method and setting. For some of these results: Binding seen in cells or lysates may run through a third protein. Some binding calls cover weakened binding; strength is not graded here. Where a sequence is shown, tags or fusion partners need not be part of it.
Assays:
[1] = biological target: BD-REV (full-length REV fused to the binding domain of GAL4) (Arabidopsis thaliana) (UniProt Q9SE43); assay: yeast three-hybrid; yeast AH109; AD and BD fusions with conditional expression of a third (bridge) protein; growth and relative β-galactosidase activity before and after induction; 30°C
[2] = biological target: BD-REV (full-length REV fused to the binding domain of GAL4) (Arabidopsis thaliana) (UniProt Q9SE43); assay: two-hybrid; GAL4 AD and BD fusions in yeast; growth on SD-Leu-Trp-His-Ade plates; 100 mM 3-AT in the selection medium
[3] = biological target: DRN-GFP (DORNRÖSCHEN fused to GFP, from pDRN::DRN-GFP plants) (Arabidopsis thaliana) (UniProt Q9SAD4); assay: co-IP; anti-GFP on Protein A sepharose beads, blot probed with anti-MYC; extracts of young (younger than P10) and mature (older than P10) leaf axil-enriched tissues of pDRN::DRN-GFP p35S::REV-MYC plants, equal amounts of DRN-GFP; 20 mM HEPES pH 7.5, 40 mM KCl, 1 mM EDTA, 1% Triton X-100

Sequences of proteins named here, by UniProt entry; tags and fusion partners are left off.
UniProt Q9SAD4: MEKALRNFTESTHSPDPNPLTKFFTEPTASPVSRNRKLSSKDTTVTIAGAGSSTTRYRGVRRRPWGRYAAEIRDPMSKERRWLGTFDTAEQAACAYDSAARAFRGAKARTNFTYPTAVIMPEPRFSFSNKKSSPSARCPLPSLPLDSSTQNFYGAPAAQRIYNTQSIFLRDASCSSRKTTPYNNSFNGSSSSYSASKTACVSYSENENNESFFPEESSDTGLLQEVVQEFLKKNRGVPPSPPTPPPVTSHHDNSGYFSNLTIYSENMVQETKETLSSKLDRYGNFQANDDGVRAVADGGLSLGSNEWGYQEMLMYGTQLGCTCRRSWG

binding [1]	binding [2]	binding [3]	Binder
binds	binds		AD-ZPR3 (LITTLE ZIPPER3 fused to the activation domain of GAL4) (protein, UniProt Q9LXI8 1-67) MERLNSKLFVENCYIMKENERLRKKAELLNQENQQLLFQLKQKLSKTKNSNNGSNNDNKSSSASGQS
binds			ZPR3 expressed as the inducible third protein in the yeast three-hybrid assay (protein, UniProt Q9LXI8 1-67) MERLNSKLFVENCYIMKENERLRKKAELLNQENQQLLFQLKQKLSKTKNSNNGSNNDNKSSSASGQS
		binds	REV-MYC (REVOLUTA with MYC tag, from p35S::REV-MYC plants) (protein, UniProt Q9SE43 1-842) MEMAVANHRERSSDSMNRHLDSSGKYVRYTAEQVEALERVYAECPKPSSLRRQQLIRECSILANIEPKQIKVWFQNRRCRDKQRKEASRLQSVNRKLSAMNKLLMEENDRLQKQVSQLVCENGYMKQQLTTVVNDPSCESVVTTPQHSLRDANSPAGLLSIAEETLAEFLSKATGTAVDWVQMPGMKPGPDSVGIFAISQRCNGVAARACGLVSLEPMKIAEILKDRPSWFRDCRSLEVFTMFPAGNGGTIELVYMQTYAPTTLAPARDFWTLRYTTSLDNGSFVVCERSLSGSGAGPNAASASQFVRAEMLSSGYLIRPCDGGGSIIHIVDHLNLEAWSVPDVLRPLYESSKVVAQKMTISALRYIRQLAQESNGEVVYGLGRQPAVLRTFSQRLSRGFNDAVNGFGDDGWSTMHCDGAEDIIVAINSTKHLNNISNSLSFLGGVLCAKASMLLQNVPPAVLIRFLREHRSEWADFNVDAYSAATLKAGSFAYPGMRPTRFTGSQIIMPLGHTIEHEEMLEVVRLEGHSLAQEDAFMSRDVHLLQICTGIDENAVGACSELIFAPINEMFPDDAPLVPSGFRVIPVDAKTGDVQDLLTANHRTLDLTSSLEVGPSPENASGNSFSSSSSRCILTIAFQFPFENNLQENVAGMACQYVRSVISSVQRVAMAISPSGISPSLGSKLSPGSPEAVTLAQWISQSYSHHLGSELLTIDSLGSDDSVLKLLWDHQDAILCCSLKPQPVFMFANQAGLDMLETTLVALQDITLEKIFDESGRKAICSDFAKLMQQGFACLPSGICVSTMGRHVSYEQAVAWKVFAASEENNNNLHCLAFSFVNWSFV

Source: paper PMC6307885
